From the supplement of paper PMC12819154, “High-throughput peptide-centric local stability assay extends protein–ligand identification to membrane proteins, tissues and bacteria” (Nature Structural & Molecular Biology, 2025)
This is one part of the list. Small differences around the control level are noise.

Protein sequences, listed by entry. Tags and fused reporters are not part of them. Lines headed by an entry give the natural chain unless they say otherwise; changes in a name come on top.
UniProt Q8N2M8: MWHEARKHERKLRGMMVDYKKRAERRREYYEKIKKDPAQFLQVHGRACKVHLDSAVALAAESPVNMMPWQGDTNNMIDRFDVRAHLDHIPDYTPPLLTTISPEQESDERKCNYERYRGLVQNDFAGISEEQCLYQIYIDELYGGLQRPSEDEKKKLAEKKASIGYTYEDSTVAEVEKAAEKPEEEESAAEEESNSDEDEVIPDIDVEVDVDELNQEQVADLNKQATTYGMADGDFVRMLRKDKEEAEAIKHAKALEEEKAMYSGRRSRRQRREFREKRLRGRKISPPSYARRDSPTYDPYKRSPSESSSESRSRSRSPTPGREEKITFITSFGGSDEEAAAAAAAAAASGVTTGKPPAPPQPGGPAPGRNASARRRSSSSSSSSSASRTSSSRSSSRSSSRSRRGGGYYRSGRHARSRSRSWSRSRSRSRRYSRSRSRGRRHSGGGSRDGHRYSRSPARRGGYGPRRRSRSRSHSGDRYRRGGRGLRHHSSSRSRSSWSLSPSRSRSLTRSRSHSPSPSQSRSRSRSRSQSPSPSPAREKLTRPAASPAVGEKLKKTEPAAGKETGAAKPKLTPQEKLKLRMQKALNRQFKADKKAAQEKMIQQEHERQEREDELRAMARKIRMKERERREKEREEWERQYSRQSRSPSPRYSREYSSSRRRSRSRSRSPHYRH
UniProt Q8N1W2: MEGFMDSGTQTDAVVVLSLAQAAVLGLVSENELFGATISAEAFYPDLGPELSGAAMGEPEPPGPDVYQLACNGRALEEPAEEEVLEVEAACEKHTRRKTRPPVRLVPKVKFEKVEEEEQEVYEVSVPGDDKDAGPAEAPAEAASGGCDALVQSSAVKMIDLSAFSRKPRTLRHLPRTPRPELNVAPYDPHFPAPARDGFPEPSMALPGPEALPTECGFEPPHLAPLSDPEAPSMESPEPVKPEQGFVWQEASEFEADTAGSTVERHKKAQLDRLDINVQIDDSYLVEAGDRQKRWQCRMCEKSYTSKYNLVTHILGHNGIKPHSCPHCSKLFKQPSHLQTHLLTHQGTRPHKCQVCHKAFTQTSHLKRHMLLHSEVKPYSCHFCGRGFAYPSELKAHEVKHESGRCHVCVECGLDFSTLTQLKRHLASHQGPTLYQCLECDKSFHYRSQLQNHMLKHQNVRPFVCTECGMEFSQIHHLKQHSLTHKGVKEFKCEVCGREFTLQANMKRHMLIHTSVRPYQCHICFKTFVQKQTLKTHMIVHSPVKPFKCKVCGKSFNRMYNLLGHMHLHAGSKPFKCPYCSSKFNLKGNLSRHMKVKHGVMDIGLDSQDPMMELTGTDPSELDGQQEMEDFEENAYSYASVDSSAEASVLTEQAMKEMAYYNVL
UniProt Q8N3F8: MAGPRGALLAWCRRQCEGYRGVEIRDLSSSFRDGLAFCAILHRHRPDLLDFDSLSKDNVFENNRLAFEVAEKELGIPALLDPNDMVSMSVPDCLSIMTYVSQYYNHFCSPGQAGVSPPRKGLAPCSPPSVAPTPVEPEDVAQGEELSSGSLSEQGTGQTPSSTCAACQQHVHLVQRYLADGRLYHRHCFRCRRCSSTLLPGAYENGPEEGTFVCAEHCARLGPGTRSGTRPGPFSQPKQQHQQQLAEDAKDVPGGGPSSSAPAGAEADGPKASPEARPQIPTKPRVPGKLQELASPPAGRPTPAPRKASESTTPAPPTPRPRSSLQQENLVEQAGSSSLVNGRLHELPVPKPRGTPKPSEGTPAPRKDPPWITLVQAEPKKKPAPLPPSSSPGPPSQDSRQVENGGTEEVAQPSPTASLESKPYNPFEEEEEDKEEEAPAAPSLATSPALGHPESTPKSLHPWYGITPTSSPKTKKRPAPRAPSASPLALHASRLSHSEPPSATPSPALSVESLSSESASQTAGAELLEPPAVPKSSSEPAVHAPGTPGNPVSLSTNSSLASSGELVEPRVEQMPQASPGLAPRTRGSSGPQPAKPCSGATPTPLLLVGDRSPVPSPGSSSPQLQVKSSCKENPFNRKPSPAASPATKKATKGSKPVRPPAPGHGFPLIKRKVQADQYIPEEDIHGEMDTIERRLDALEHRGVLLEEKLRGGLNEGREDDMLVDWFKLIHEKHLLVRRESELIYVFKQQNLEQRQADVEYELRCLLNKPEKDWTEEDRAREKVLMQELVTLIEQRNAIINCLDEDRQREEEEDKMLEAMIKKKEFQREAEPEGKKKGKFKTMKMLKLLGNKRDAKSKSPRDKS
UniProt Q8IZP0: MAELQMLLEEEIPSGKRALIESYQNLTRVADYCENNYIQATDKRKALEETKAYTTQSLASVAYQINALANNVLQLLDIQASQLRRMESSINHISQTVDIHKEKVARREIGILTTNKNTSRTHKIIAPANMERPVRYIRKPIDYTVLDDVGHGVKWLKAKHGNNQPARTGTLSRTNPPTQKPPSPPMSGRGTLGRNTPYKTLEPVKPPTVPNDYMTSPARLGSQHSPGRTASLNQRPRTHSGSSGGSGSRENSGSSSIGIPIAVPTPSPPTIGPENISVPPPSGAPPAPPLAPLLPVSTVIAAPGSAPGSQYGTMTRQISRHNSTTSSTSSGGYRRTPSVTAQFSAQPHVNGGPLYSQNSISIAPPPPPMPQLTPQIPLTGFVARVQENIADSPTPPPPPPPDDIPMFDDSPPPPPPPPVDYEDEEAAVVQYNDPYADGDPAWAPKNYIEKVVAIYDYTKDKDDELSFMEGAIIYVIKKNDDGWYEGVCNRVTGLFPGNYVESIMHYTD
UniProt Q86X95: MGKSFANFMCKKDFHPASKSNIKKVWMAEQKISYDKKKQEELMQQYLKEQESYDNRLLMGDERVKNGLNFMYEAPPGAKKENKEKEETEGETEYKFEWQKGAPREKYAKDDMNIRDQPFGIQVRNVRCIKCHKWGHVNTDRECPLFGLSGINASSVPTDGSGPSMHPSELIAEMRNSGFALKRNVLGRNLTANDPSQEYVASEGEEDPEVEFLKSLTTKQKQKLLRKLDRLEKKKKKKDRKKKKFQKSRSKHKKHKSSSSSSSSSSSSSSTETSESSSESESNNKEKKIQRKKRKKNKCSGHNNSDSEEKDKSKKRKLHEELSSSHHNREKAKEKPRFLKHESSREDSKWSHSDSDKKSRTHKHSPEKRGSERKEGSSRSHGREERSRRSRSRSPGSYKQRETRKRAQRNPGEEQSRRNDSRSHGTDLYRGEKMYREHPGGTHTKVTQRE
UniProt Q86WR0: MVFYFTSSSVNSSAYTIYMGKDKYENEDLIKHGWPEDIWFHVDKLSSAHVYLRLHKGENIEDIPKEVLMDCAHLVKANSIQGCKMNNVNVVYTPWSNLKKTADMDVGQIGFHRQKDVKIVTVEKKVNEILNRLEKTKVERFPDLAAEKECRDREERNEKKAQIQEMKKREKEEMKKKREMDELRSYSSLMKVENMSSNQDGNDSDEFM
UniProt Q8IVS2: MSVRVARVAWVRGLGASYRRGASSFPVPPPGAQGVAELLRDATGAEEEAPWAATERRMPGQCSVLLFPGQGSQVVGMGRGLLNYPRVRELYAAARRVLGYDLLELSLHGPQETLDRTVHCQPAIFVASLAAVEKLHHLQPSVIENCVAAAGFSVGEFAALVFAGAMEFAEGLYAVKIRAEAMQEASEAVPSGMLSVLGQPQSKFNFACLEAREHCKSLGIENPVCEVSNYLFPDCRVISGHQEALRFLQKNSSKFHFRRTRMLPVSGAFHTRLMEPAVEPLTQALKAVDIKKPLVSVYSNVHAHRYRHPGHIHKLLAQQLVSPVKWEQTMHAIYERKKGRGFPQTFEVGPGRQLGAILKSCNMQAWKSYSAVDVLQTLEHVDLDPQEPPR
UniProt Q8N183: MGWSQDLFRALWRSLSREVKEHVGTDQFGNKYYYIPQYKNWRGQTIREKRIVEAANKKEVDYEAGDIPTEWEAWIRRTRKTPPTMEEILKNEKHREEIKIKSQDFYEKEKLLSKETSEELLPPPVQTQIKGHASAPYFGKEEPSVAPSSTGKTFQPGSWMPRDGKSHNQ
UniProt Q8N2G8: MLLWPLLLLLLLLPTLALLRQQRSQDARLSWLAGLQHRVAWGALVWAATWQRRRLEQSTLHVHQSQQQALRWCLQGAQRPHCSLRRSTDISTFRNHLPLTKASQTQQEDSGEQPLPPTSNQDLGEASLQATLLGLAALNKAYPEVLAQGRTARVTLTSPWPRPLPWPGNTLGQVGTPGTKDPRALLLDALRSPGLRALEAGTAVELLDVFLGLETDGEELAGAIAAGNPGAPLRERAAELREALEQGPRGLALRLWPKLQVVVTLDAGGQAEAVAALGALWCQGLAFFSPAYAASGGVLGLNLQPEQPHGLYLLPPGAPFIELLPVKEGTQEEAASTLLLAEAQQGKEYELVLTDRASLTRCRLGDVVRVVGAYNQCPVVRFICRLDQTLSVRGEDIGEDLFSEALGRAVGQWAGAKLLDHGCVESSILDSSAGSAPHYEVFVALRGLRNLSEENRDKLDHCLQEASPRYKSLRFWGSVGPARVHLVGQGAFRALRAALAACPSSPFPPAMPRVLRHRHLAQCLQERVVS
UniProt Q8IX01: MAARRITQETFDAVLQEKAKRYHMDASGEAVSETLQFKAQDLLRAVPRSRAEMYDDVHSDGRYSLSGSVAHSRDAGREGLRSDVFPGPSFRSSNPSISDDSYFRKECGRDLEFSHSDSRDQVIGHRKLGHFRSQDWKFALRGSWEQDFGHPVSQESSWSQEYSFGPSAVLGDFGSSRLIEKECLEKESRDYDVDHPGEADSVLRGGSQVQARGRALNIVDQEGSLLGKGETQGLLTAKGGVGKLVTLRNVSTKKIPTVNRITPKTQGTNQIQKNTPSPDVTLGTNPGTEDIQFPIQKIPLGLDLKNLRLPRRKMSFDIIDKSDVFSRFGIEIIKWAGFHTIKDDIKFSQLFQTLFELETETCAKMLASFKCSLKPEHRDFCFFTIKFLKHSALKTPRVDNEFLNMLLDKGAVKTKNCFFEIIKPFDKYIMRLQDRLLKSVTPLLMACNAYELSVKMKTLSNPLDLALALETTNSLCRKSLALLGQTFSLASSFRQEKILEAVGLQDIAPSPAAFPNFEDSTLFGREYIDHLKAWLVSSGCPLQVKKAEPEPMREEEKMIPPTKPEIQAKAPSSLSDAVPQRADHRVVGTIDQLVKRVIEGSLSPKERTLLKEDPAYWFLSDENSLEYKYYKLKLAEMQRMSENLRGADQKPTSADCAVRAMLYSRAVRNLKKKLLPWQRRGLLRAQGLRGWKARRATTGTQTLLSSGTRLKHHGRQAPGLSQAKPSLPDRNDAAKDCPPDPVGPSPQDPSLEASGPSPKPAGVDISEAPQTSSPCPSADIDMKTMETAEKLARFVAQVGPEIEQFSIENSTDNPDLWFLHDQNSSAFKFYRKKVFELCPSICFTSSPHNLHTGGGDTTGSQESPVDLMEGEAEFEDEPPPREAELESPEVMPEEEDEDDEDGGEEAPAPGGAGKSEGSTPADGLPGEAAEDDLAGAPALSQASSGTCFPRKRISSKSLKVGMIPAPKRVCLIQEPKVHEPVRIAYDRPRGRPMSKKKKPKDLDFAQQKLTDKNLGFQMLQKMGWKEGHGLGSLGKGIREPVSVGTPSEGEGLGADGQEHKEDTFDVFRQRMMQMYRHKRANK
UniProt Q8N2I9: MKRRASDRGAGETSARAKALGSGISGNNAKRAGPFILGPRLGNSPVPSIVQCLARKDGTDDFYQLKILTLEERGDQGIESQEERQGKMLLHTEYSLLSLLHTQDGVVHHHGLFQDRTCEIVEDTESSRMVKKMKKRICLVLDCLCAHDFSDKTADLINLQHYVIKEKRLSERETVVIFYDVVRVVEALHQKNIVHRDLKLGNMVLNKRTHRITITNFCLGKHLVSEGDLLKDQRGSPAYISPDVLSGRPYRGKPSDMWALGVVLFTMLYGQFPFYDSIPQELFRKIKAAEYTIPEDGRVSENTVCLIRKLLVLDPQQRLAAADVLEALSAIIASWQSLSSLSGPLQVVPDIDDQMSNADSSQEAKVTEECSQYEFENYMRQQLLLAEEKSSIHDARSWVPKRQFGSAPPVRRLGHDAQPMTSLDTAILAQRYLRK
UniProt Q86W50: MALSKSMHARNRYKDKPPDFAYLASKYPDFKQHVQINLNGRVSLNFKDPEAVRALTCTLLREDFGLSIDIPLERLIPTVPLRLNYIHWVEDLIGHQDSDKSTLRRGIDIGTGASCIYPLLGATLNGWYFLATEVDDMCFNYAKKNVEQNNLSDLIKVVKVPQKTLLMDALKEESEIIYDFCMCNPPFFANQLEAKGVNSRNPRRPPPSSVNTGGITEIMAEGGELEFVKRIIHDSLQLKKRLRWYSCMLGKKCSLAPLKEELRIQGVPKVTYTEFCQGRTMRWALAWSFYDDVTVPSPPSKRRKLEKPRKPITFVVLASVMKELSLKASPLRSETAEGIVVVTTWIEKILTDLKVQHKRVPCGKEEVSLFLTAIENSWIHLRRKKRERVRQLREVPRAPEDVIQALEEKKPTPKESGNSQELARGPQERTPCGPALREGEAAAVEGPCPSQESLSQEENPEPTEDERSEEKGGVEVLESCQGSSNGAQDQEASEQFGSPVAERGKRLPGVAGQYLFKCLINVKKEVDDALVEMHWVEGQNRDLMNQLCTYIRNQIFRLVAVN

The targets below were run with CN[C@@H]1C[C@H]2O[C@@](C)([C@@H]1OC)n1c3ccccc3c3c4c(c5c6ccccc6n2c5c31)C(=O)NC4 [staurosporine] (assay: log2 fold change of tryptic peptide abundance, ligand vs vehicle (limited proteolysis) (log2 ratio); higher = more trypsin-susceptible (destabilized)). Conditions: ligand concentration: 20 uM; sample: K562 cleared lysate; digestion: 4 min, 22 C (HT-PELSA RT4min, Orbitrap Astral).
In the case of “UniProt Q8N2M8 (peptide sequence: SQSPSPSPAR, peptide start residue: 529)”, the log2 fold change is reported as 0.655. “UniProt Q8N1W2 (peptide sequence: TPRPELNVAPYDPHFPAPAR, peptide start residue: 177)” showed a log2 fold change of -0.0814. Work on “MEX3D (peptide sequence: DKEPVFAVTGMPENVDR, peptide start residue: 313) (UniProt Q86XN8)” yielded a log2 fold change of -0.383. Target “MICALL1 (peptide sequence: QREEEEDKMLEAMIK, peptide start residue: 807) (UniProt Q8N3F8)” has a log2 fold change of 0.48. “ABI1 (peptide sequence: VADYCENNYIQATDKR, peptide start residue: 29) (UniProt Q8IZP0)” was tested, and the log2 fold change was -0.216. “ZGRF1 (peptide sequence: WTDAVYGDNKEDANKPIQEVR, peptide start residue: 650) (UniProt Q86YA3)” showed a log2 fold change of -0.865. Target “ARMC8 (peptide sequence: YPSSVSAITDIK, peptide start residue: 334) (UniProt Q8IUR7)” has a log2 fold change of 0.264. In the case of “RASSF3 (peptide sequence: TDTLSFVLR, peptide start residue: 175) (UniProt Q86WH2)”, the log2 fold change is reported as 0.24. In the case of “UniProt Q8IVC4 (peptide sequence: VIQHQDTHSEGKPR, peptide start residue: 118)”, the log2 fold change is reported as -1.31. “UniProt Q8IYL2 (peptide sequence: RGCPVSPPGWELSPSPR, peptide start residue: 528)” showed a log2 fold change of 0.34. Work on “UniProt Q86X95 (peptide sequence: SFANFMCK, peptide start residue: 4)” yielded a log2 fold change of -0.242. “CCDC25 (peptide sequence: TADMDVGQIGFHR, peptide start residue: 101) (UniProt Q86WR0)” gave a log2 fold change of 0.209. In the case of “UniProt Q8IVS2 (peptide sequence: KPLVSVYSNVHAHRYR, peptide start residue: 292)”, the log2 fold change is reported as -0.172. For “ZNF444 (peptide sequence: QSHSGEKPHACPECGK, peptide start residue: 199) (UniProt Q8N0Y2)”, the log2 fold change was -0.947. For “PARP9 (peptide sequence: EIHLVSNEDPTVAAFK, peptide start residue: 274) (UniProt Q8IXQ6)”, the log2 fold change was 0.322. “UBR1 (peptide sequence: VSEDLVSIHLPLSR, peptide start residue: 600) (UniProt Q8IWV7)” gave a log2 fold change of -0.361. Work on “DZIP3 (peptide sequence: VTTDYGETEKER, peptide start residue: 739) (UniProt Q86Y13)” yielded a log2 fold change of -0.419. “THNSL1 (peptide sequence: AQIIGSQR, peptide start residue: 418) (UniProt Q8IYQ7)” was tested, and the log2 fold change was 0.679. Target “NDUFAF2 (peptide sequence: ETSEELLPPPVQTQIK, peptide start residue: 115) (UniProt Q8N183)” has a log2 fold change of -0.373. “TEX2 (peptide sequence: GSVEEIMSQPK, peptide start residue: 750) (UniProt Q8IWB9)” showed a log2 fold change of -0.503. With “GHDC (peptide sequence: STDISTFR, peptide start residue: 87) (UniProt Q8N2G8)” the log2 fold change was 0.135. For “UniProt Q8IX01 (peptide sequence: GADQKPTSADCAVR, peptide start residue: 646)”, the log2 fold change was -0.181. “C1orf174 (peptide sequence: LASAQEVAGSTSAK, peptide start residue: 26) (UniProt Q8IYL3)” gave a log2 fold change of -0.1. For “PDSS2 (peptide sequence: LVGTQHPLLTTAR, peptide start residue: 87) (UniProt Q86YH6)”, the log2 fold change was 0.179. In the case of “STK40 (peptide sequence: ALGSGISGNNAK, peptide start residue: 19) (UniProt Q8N2I9)”, the log2 fold change is reported as 0.375. Target “UniProt Q86W50 (peptide sequence: IIHDSLQLK, peptide start residue: 231)” has a log2 fold change of 0.356.
